In US11439646B2, “Anti-proliferative agents for treating PAH” (Pfizer Inc., priority 2016, dated 2022):

Columns and labels:
Type in all cases: cell-based
rPASMC = assay: EdU cell proliferation assay, rPASMC; conditions: Rattus norvegicus, 5% FBS, N = 6, FIG. 1g, read-out: rPASMC IC50 (nM), inhibition of proliferation
Procedure: (§1) Alternatively, rather than using BrdU, EdU (5-ethynyl-2′-deoxyuridine) can be used. Cells were first pre-incubated with different concentrations of the CDK inhibitor for 30 minutes, and then 5% FBS was added to stimulate cell proliferation. Cells were maintained for 24 h before the proliferation rate was evaluated using EDU Click-iT EdU Alexa Fluor® 647 HCS Assay (Thermofisher Scientific, USA). EdU was added to the medium 16 h before the quantification of EdU incorporation. Proliferation was quantified by scanning the 96-well plates using automated high content imaging platform equipped with appropriate fluorescence microscopic filters for DAPI (4′,6-Diamidino-2-Phenylindole) or Hoechst stain and Cyanine5 dyes as part of the Click-iT assay. Proliferating EdU positive cells detected at Cyanine5 were quantified and normalized to total cell number per well where the total cell number per cell was identified by DAPI or Hoechst signal. The % effect was then calculated:
(§2) The average (avg) amount (amt) of proliferating cells per concentration of CDK inhibitor with FBS present.
(§3) The minimum amount of proliferation (min amt of prolif'n) is based on cell numbers in the wells where FBS is not added and no CDK inhibitor is present.
(§4) The maximum amount of proliferation (max amt of prolif'n) is based on cell numbers in the wells where FBS is added and no CDK inhibitor is present. […]

hPAAF = assay: EdU cell proliferation assay, hPAAF; conditions: Homo sapiens, 5% FBS, N = 6, FIG. 1f, read-out: hPAAF IC50 (nM), inhibition of proliferation
Procedure: as §1, §2, §3, §4

phospho-Rb (Ser807/811) = assay: In-cell western analysis of Rb phosphorylation in human PASMCs; conditions: PASMC, 10% FBS, N = 6, FIG. 2c, read-out: Average IC50 (nM), inhibition of phosphorylation of Rb in hPASMCs
Procedure: In-cell western analysis. Primary PASMCs from normal human subjects were cultured and serum-starved as described above. Cells were first pre-incubated with different concentrations of palbociclib for 60 minutes, and then either 5% FBS or 10% FBS or 30 ng/ml PDGF-BB was added to stimulate cell proliferation and Rb phosphorylation. The effect of Palbociclib on Rb phosphorylation was evaluated 24 h later, using in-cell western assay according to the manufacturer's instructions (Li-Cor Biosciences, Lincoln, Nebr., USA). Phosphorylated Rb was measured using a rabbit monoclonal antibody anti-phospho-Rb (Ser807/811) (Cell Signaling Technology, Inc., Danvers, Mass., USA), followed by detection with IRDye 800CW infrared fluorescent dye-labeled goat anti-rabbit secondary antibody. Actin levels were measured using mouse anti-actin monoclonal antibodies (pan Ab-5) (Fisher Scientific Pittsburgh, Pa., USA; Sigma Aldrich, St. Louis, Mo., USA), and followed by detection with IRDye 680RD-labeled goat anti-mouse secondary antibody. See FIG. 2a where 5% FBS was used, FIG. 2b where PDGF-BB was used, and FIG. 2c where 10% FBS was used.

CCc1cnn2c(NCc3ccc[n+]([O-])c3)cc(N3CCCC[C@H]3CCO)nc12 [Dinaciclib, 2-[(2S)-1-[3-ethyl-7-[(1-oxidopyridin-1-ium-3-yl)methylamino]pyrazolo[1,5-a]pyrimidin-5-yl]piperidin-2-yl]ethanol]
IC50 (rPASMC): 1.1 nM | IC50 (hPAAF): 0.2 nM | IC50 (phospho-Rb (Ser807/811)): 5.65 nM
